No constants are given. Whether binding was seen depends on the method and setting. Some entries that bind do so weakly or less than the wild type. Sequences can lack the tags named with a protein.
T1: IgaA fused to the T18 or the T25 fragment of adenylate cyclase (E. coli) (UniProt P45800)
T1 sequence: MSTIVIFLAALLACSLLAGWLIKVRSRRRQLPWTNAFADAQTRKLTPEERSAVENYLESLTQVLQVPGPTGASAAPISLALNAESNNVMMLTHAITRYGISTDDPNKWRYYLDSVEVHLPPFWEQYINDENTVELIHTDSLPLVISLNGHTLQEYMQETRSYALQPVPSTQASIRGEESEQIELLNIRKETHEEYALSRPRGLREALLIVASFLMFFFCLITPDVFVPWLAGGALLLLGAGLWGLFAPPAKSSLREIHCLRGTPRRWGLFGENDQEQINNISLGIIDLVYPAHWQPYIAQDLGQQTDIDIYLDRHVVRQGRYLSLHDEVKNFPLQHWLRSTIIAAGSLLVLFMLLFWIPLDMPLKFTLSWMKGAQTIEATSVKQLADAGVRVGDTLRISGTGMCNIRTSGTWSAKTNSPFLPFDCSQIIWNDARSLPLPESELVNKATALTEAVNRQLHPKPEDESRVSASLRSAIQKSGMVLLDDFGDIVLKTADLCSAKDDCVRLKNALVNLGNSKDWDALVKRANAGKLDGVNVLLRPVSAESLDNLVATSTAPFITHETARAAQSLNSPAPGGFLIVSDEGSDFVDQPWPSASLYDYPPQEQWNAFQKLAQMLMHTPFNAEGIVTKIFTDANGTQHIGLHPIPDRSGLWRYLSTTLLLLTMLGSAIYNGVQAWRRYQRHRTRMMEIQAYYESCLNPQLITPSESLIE

T2: RcsD fused to the T25 or the T18 fragment of adenylate cyclase (E. coli) (UniProt P39838)
T2 sequence: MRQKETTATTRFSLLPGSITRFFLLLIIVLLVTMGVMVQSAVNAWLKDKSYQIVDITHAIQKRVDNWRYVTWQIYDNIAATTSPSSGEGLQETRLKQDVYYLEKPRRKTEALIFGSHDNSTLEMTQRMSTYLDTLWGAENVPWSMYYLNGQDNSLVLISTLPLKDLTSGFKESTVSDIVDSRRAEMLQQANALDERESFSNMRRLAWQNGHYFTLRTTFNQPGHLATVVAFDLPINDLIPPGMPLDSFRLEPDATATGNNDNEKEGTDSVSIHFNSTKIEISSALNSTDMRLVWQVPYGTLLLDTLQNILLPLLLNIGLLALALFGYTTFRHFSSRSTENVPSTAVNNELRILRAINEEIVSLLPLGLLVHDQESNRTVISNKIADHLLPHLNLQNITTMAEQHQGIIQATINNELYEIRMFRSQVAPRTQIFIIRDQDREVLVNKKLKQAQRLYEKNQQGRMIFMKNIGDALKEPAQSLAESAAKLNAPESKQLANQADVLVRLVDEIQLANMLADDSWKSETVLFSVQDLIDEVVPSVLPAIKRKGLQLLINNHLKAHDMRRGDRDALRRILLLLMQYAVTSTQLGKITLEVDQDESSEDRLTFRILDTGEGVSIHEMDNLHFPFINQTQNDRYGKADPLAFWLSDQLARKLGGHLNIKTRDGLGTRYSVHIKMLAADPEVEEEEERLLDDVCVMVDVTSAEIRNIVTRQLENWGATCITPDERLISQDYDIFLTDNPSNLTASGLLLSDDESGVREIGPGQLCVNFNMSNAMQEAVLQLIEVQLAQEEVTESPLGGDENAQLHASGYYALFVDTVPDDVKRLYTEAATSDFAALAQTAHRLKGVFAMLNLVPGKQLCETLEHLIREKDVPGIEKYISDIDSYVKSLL


Legend:
[1] = molecular target: T1, IgaA fused to the T18 or the T25 fragment of adenylate cyclase (E. coli); assay: two-hybrid; BACTH read on a Lactose MacConkey plate with Ampicillin and Kanamycin, BTH101 co-transformed with T18 and T25 plasmids, two days at 30°C; positive interactions are red
[2] = molecular target: T1, IgaA fused to the T18 or the T25 fragment of adenylate cyclase (E. coli); assay: two-hybrid; bacterial adenylate cyclase two-hybrid (BACTH): T18 and T25 fragments fused C-terminally to the two proteins, two plasmids in cyaA deficient E. coli BTH101; beta-galactosidase activity (Miller units) against fusion plus empty cognate vector as background; threshold for reliable interaction 4x over background; IgaA/RcsD also tested in rcsB, rcsC, rcsF and rcsD mutant hosts; in the rows the T25 fusion is the binder, the T18 fusion the target
[3] = molecular target: T2, RcsD fused to the T25 or the T18 fragment of adenylate cyclase (E. coli); assay: as above

Row | binding [1] | binding [2] | binding [3] | Binder
1 |  | binds |  | RcsD_(1-461)-T25 (domain or fragment, UniProt P39838 1-461) MRQKETTATTRFSLLPGSITRFFLLLIIVLLVTMGVMVQSAVNAWLKDKSYQIVDITHAIQKRVDNWRYVTWQIYDNIAATTSPSSGEGLQETRLKQDVYYLEKPRRKTEALIFGSHDNSTLEMTQRMSTYLDTLWGAENVPWSMYYLNGQDNSLVLISTLPLKDLTSGFKESTVSDIVDSRRAEMLQQANALDERESFSNMRRLAWQNGHYFTLRTTFNQPGHLATVVAFDLPINDLIPPGMPLDSFRLEPDATATGNNDNEKEGTDSVSIHFNSTKIEISSALNSTDMRLVWQVPYGTLLLDTLQNILLPLLLNIGLLALALFGYTTFRHFSSRSTENVPSTAVNNELRILRAINEEIVSLLPLGLLVHDQESNRTVISNKIADHLLPHLNLQNITTMAEQHQGIIQATINNELYEIRMFRSQVAPRTQIFIIRDQDREVLVNKKLKQAQRLYEKNQQG
2 |  | binds |  | RcsD_(1-522)-T25 (domain or fragment, UniProt P39838 1-522) MRQKETTATTRFSLLPGSITRFFLLLIIVLLVTMGVMVQSAVNAWLKDKSYQIVDITHAIQKRVDNWRYVTWQIYDNIAATTSPSSGEGLQETRLKQDVYYLEKPRRKTEALIFGSHDNSTLEMTQRMSTYLDTLWGAENVPWSMYYLNGQDNSLVLISTLPLKDLTSGFKESTVSDIVDSRRAEMLQQANALDERESFSNMRRLAWQNGHYFTLRTTFNQPGHLATVVAFDLPINDLIPPGMPLDSFRLEPDATATGNNDNEKEGTDSVSIHFNSTKIEISSALNSTDMRLVWQVPYGTLLLDTLQNILLPLLLNIGLLALALFGYTTFRHFSSRSTENVPSTAVNNELRILRAINEEIVSLLPLGLLVHDQESNRTVISNKIADHLLPHLNLQNITTMAEQHQGIIQATINNELYEIRMFRSQVAPRTQIFIIRDQDREVLVNKKLKQAQRLYEKNQQGRMIFMKNIGDALKEPAQSLAESAAKLNAPESKQLANQADVLVRLVDEIQLANMLADDSWKS
3 |  | no binding | no binding | RcsC fused to the T18 or the T25 fragment of adenylate cyclase (enzyme, UniProt P0DMC5 1-949) MKYLASFRTTLKASRYMFRALALVLWLLIAFSSVFYIVNALHQRESEIRQEFNLSSDQAQRFIQRTSDVMKELKYIAENRLSAENGVLSPRGRETQADVPAFEPLFADSDCSAMSNTWRGSLESLAWFMRYWRDNFSAAYDLNRVFLIGSDNLCMANFGLRDMPVERDTALKALHERINKYRNAPQDDSGSNLYWISEGPRPGVGYFYALTPVYLANRLQALLGVEQTIRMENFFLPGTLPMGVTILDENGHTLISLTGPESKIKGDPRWMQERSWFGYTEGFRELVLKKNLPPSSLSIVYSVPVDKVLERIRMLILNAILLNVLAGAALFTLARMYERRIFIPAESDALRLEEHEQFNRKIVASAPVGICILRTADGVNILSNELAHTYLNMLTHEDRQRLTQIICGQQVNFVDVLTSNNTNLQISFVHSRYRNENVAICVLVDVSSRVKMEESLQEMAQAAEQASQSKSMFLATVSHELRTPLYGIIGNLDLLQTKELPKGVDRLVTAMNNSSSLLLKIISDILDFSKIESEQLKIEPREFSPREVMNHITANYLPLVVRKQLGLYCFIEPDVPVALNGDPMRLQQVISNLLSNAIKFTDTGCIVLHVRADGDYLSIRVRDTGVGIPAKEVVRLFDPFFQVGTGVQRNFQGTGLGLAICEKLISMMDGDISVDSEPGMGSQFTVRIPLYGAQYPQKKGVEGLSGKRCWLAVRNASLCQFLETSLQRSGIVVTTYEGQEPTPEDVLITDEVVSKKWQGRAVVTFCRRHIGIPLEKAPGEWVHSVAAPHELPALLARIYLIEMESDDPANALPSTDKAVSDNDDMMILVVDDHPINRRLLADQLGSLGYQCKTANDGVDALNVLSKNHIDIVLSDVNMPNMDGYRLTQRIRQLGLTLPVIGVTANALAEEKQRCLESGMDSCLSKPVTLDVIKQTLTLYAERVRKSRDS
4 |  | no binding |  | RcsD_(326-C)-T25 (domain or fragment, UniProt P39838 326-890) GYTTFRHFSSRSTENVPSTAVNNELRILRAINEEIVSLLPLGLLVHDQESNRTVISNKIADHLLPHLNLQNITTMAEQHQGIIQATINNELYEIRMFRSQVAPRTQIFIIRDQDREVLVNKKLKQAQRLYEKNQQGRMIFMKNIGDALKEPAQSLAESAAKLNAPESKQLANQADVLVRLVDEIQLANMLADDSWKSETVLFSVQDLIDEVVPSVLPAIKRKGLQLLINNHLKAHDMRRGDRDALRRILLLLMQYAVTSTQLGKITLEVDQDESSEDRLTFRILDTGEGVSIHEMDNLHFPFINQTQNDRYGKADPLAFWLSDQLARKLGGHLNIKTRDGLGTRYSVHIKMLAADPEVEEEEERLLDDVCVMVDVTSAEIRNIVTRQLENWGATCITPDERLISQDYDIFLTDNPSNLTASGLLLSDDESGVREIGPGQLCVNFNMSNAMQEAVLQLIEVQLAQEEVTESPLGGDENAQLHASGYYALFVDTVPDDVKRLYTEAATSDFAALAQTAHRLKGVFAMLNLVPGKQLCETLEHLIREKDVPGIEKYISDIDSYVKSLL

Second part, the binder before the results:

Row | Binder | binding [1] | binding [2] | binding [3]
5 | RcsD_(1-461, Δ45–304)-T25 (domain or fragment, UniProt P39838) MRQKETTATTRFSLLPGSITRFFLLLIIVLLVTMGVMVQSAVNATLQNILLPLLLNIGLLALALFGYTTFRHFSSRSTENVPSTAVNNELRILRAINEEIVSLLPLGLLVHDQESNRTVISNKIADHLLPHLNLQNITTMAEQHQGIIQATINNELYEIRMFRSQVAPRTQIFIIRDQDREVLVNKKLKQAQRLYEKNQQG | binds |  | 
6 | RcsD_(1-683)-T25 (domain or fragment, UniProt P39838 1-683) MRQKETTATTRFSLLPGSITRFFLLLIIVLLVTMGVMVQSAVNAWLKDKSYQIVDITHAIQKRVDNWRYVTWQIYDNIAATTSPSSGEGLQETRLKQDVYYLEKPRRKTEALIFGSHDNSTLEMTQRMSTYLDTLWGAENVPWSMYYLNGQDNSLVLISTLPLKDLTSGFKESTVSDIVDSRRAEMLQQANALDERESFSNMRRLAWQNGHYFTLRTTFNQPGHLATVVAFDLPINDLIPPGMPLDSFRLEPDATATGNNDNEKEGTDSVSIHFNSTKIEISSALNSTDMRLVWQVPYGTLLLDTLQNILLPLLLNIGLLALALFGYTTFRHFSSRSTENVPSTAVNNELRILRAINEEIVSLLPLGLLVHDQESNRTVISNKIADHLLPHLNLQNITTMAEQHQGIIQATINNELYEIRMFRSQVAPRTQIFIIRDQDREVLVNKKLKQAQRLYEKNQQGRMIFMKNIGDALKEPAQSLAESAAKLNAPESKQLANQADVLVRLVDEIQLANMLADDSWKSETVLFSVQDLIDEVVPSVLPAIKRKGLQLLINNHLKAHDMRRGDRDALRRILLLLMQYAVTSTQLGKITLEVDQDESSEDRLTFRILDTGEGVSIHEMDNLHFPFINQTQNDRYGKADPLAFWLSDQLARKLGGHLNIKTRDGLGTRYSVHIKMLAADPEV |  | binds | 
7 | RcsD_(1-383)-T25 (domain or fragment, UniProt P39838 1-383) MRQKETTATTRFSLLPGSITRFFLLLIIVLLVTMGVMVQSAVNAWLKDKSYQIVDITHAIQKRVDNWRYVTWQIYDNIAATTSPSSGEGLQETRLKQDVYYLEKPRRKTEALIFGSHDNSTLEMTQRMSTYLDTLWGAENVPWSMYYLNGQDNSLVLISTLPLKDLTSGFKESTVSDIVDSRRAEMLQQANALDERESFSNMRRLAWQNGHYFTLRTTFNQPGHLATVVAFDLPINDLIPPGMPLDSFRLEPDATATGNNDNEKEGTDSVSIHFNSTKIEISSALNSTDMRLVWQVPYGTLLLDTLQNILLPLLLNIGLLALALFGYTTFRHFSSRSTENVPSTAVNNELRILRAINEEIVSLLPLGLLVHDQESNRTVISNK |  | no binding | 
